These are yes or no findings as the source states them, for the method shown. In cells and extracts the contact can be indirect.

By UniProt entry, the sequences of proteins in these tests, tags left out.
UniProt Q9UIH9: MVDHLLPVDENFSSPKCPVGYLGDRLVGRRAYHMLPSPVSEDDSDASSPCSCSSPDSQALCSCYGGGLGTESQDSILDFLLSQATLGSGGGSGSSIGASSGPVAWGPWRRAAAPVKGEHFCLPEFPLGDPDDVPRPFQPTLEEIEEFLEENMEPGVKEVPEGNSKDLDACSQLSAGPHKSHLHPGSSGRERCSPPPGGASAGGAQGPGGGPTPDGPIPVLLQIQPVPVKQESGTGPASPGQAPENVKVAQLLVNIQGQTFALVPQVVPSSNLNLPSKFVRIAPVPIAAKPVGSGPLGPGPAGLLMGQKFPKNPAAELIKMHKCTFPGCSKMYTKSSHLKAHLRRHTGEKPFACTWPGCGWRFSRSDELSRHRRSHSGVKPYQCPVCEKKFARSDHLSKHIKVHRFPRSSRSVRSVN

This assay deals with T1, nuclear factor erythroid 2-related factor 2 (UniProt Q16236).
T1 sequence: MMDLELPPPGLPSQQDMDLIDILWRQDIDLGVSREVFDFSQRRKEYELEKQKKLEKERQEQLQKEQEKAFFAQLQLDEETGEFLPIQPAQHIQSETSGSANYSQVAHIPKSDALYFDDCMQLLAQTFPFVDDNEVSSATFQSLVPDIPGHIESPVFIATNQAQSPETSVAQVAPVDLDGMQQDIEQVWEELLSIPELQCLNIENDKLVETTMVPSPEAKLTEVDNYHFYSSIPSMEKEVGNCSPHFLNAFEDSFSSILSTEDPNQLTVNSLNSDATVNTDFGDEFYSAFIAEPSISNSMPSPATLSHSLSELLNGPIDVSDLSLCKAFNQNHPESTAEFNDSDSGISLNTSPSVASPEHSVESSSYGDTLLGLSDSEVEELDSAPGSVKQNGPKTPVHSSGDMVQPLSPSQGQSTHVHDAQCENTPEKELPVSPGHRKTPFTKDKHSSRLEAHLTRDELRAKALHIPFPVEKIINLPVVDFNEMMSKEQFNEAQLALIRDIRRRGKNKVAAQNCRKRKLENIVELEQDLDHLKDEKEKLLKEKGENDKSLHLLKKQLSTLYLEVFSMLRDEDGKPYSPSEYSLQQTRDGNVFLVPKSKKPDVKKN
The assay can be described thus: co-IP; cells lysed in RIPA buffer with 10 mmol/L N-ethylmaleimide and protease and phosphatase inhibitors; NRF2 antibody and protein A beads, 4 °C, 1 h; Western blot with KLF15 antibody. In general terms: A western blot detects proteins with antibodies after separation by electrophoresis.

Take “Krüppel-like factor 15 (from UniProt Q9UIH9 1-416)”: the binding entry is “no binding”.
